Measured values: article PMC9688808, “Discovery of Novel Lin28 Inhibitors to Suppress Cancer Cell Stemness” (Cancers, 2022)
Construct, isoform or probe ends are uncertain for at least one entry. At least one verdict rests on a figure or table, not on a statement of the authors. Protein sequences can lack the tags named with them.

How the values were obtained:
[1] = target: T1, Lin28B CSD+ZKD (Homo sapiens) (UniProt Q6ZN17); assay: fluorescence polarization; conditions: compound screening assay; FP: 30 uL, room temperature, 20 min, buffer not stated; recombinant protein; residues 7-204; protein details: His
T1 sequence (looked up): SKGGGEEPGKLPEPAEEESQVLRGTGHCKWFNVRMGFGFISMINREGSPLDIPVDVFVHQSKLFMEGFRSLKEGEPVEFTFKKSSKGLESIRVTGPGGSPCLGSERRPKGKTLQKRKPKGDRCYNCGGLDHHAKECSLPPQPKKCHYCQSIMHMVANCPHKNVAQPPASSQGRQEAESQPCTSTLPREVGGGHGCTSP

[2] = target: T2, Lin28A ZKD (Homo sapiens) (UniProt Q9H9Z2); assay: fluorescence polarization; conditions: 10 uM protein, 1 nM probe, signal suppressed by Ln7, Ln15, Ln115; FP: 30 uL, room temperature, 20 min, buffer not stated; recombinant protein; residues 121-187; protein details: His
T2 sequence (looked up): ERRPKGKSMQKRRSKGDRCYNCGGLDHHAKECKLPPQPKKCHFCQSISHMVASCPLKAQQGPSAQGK

Sequence: UUAGGGCACGAGAUUUUGCCCACAAGGAGUU [FAM-Let-7 probe]
- binding result [1]: binds
- binding result [2]: binds
